Reference: the supplement of paper PMC10849652
This is one part of the list.

The chains behind the UniProt entries cited, without tags or fusion partners. Where a name states a change or a piece, a line headed by the entry shows the natural chain unless it says otherwise.
UniProt Q8TE73: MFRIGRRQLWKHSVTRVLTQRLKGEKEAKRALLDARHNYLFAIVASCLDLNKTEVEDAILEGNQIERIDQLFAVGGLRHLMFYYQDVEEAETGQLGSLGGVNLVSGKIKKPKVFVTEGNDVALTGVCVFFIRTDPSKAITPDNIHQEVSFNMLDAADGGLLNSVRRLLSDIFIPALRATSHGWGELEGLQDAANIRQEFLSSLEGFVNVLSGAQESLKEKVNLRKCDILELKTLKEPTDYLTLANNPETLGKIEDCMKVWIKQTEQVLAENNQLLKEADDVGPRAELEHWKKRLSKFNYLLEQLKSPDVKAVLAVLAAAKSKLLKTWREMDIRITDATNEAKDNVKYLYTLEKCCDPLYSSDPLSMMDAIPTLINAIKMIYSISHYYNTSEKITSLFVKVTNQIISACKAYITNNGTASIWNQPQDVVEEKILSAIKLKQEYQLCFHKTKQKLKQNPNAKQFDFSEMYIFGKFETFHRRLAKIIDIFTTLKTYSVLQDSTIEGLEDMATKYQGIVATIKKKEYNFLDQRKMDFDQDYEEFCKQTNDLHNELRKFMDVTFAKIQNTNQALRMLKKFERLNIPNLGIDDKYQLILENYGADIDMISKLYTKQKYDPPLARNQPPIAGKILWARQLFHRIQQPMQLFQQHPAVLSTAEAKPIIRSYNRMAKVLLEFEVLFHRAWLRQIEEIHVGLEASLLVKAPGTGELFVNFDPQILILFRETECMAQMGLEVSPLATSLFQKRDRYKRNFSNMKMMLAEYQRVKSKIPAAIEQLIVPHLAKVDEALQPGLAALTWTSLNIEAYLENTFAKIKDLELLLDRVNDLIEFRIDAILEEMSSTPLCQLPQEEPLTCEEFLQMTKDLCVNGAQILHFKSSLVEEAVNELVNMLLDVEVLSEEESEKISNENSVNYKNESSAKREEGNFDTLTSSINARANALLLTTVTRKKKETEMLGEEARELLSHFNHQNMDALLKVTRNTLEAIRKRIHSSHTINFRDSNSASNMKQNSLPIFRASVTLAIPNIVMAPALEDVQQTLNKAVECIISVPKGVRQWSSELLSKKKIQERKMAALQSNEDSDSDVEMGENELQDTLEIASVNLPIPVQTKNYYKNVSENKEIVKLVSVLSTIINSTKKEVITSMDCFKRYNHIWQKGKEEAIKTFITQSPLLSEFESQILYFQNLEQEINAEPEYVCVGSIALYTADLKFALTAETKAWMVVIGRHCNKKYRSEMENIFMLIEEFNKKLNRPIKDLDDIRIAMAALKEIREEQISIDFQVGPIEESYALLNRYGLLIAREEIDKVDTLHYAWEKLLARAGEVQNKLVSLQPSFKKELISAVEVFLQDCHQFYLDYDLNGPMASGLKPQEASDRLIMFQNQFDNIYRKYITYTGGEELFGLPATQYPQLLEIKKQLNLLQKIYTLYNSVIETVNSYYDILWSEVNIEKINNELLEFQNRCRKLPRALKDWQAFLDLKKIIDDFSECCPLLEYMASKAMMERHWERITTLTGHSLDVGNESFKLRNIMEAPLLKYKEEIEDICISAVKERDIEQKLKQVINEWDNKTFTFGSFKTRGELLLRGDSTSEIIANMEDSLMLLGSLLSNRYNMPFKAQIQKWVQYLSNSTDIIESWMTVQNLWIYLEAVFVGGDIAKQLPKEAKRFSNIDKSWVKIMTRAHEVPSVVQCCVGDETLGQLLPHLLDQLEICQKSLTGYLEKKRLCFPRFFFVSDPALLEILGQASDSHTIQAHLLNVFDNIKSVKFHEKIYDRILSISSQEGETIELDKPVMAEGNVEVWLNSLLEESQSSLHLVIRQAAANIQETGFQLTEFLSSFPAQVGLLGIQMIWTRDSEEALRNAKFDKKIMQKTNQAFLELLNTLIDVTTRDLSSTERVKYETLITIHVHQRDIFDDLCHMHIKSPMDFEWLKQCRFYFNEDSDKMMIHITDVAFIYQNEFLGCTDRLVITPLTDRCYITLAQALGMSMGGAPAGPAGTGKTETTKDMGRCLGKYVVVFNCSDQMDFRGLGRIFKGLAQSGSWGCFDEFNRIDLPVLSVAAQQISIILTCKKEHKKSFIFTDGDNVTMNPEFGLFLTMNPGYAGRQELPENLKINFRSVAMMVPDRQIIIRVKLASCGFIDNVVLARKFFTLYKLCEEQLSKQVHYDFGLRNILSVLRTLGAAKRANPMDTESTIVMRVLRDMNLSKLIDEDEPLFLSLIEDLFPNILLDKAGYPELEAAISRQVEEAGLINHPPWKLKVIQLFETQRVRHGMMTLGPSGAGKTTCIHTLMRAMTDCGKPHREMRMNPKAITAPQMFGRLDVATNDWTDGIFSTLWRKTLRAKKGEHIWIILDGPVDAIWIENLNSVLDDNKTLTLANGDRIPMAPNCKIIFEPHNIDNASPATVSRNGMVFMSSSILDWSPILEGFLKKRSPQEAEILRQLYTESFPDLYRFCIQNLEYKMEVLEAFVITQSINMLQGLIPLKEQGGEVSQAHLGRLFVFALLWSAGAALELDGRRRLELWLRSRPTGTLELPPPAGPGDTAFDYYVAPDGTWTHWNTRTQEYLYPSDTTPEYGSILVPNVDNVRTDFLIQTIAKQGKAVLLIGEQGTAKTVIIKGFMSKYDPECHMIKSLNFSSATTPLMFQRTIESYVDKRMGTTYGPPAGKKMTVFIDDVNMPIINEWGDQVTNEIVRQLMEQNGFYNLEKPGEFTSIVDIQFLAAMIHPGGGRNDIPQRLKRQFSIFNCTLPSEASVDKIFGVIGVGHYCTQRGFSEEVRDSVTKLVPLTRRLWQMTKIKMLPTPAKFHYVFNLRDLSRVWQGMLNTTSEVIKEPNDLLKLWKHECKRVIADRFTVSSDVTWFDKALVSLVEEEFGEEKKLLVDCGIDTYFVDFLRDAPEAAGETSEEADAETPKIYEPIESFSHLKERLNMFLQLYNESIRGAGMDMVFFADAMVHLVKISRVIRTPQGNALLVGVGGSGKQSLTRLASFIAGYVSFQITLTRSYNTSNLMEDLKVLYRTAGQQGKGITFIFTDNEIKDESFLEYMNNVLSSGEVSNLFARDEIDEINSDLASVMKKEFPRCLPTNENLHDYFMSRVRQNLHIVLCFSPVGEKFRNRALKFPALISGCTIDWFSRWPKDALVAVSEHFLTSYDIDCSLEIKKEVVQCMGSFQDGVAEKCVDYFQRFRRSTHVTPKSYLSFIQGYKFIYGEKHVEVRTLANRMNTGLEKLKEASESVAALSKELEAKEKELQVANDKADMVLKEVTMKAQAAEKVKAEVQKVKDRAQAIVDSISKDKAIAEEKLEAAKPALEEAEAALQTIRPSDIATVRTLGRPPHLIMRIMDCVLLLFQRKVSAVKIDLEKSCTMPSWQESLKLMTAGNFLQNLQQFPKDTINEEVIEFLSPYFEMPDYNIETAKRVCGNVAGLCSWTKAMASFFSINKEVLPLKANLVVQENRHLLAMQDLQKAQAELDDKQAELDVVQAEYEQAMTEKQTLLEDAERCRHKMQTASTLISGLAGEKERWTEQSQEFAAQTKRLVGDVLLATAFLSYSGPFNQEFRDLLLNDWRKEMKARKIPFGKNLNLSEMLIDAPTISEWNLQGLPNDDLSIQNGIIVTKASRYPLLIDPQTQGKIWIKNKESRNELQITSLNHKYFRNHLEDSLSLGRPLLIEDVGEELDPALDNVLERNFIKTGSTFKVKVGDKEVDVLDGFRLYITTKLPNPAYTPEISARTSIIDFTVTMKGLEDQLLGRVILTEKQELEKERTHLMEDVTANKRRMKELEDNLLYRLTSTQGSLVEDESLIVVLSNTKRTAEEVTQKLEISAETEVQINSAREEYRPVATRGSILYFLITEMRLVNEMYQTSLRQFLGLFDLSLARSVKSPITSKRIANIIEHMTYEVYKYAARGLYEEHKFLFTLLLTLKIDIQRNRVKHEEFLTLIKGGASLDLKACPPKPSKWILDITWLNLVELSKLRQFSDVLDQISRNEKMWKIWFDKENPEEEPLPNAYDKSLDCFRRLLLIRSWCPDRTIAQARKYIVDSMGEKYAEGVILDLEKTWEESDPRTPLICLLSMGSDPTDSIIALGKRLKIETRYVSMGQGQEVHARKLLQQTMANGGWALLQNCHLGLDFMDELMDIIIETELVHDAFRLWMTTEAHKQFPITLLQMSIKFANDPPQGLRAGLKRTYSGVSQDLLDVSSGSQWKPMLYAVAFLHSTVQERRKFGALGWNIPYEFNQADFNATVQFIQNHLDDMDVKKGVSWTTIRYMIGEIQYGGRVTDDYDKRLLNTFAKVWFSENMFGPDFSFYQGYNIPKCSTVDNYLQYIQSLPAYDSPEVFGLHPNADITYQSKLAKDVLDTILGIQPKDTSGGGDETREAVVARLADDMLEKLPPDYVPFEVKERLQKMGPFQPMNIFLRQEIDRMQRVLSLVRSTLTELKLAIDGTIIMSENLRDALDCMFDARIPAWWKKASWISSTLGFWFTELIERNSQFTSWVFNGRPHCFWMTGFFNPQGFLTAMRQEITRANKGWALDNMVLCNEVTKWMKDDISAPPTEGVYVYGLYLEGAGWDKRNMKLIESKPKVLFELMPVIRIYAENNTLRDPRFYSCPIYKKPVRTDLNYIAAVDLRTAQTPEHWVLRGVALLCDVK
UniProt P39656: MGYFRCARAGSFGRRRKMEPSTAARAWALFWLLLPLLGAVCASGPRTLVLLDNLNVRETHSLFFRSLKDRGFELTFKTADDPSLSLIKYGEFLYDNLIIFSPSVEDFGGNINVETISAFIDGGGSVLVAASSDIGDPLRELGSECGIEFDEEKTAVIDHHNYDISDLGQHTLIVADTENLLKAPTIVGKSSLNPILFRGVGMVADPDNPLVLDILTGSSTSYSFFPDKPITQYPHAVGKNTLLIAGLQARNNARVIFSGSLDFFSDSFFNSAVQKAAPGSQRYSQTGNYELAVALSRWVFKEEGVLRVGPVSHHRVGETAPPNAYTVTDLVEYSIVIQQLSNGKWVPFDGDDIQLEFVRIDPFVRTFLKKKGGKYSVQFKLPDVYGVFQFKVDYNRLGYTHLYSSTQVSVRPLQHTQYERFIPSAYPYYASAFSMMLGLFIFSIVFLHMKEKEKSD
UniProt Q9NUI1: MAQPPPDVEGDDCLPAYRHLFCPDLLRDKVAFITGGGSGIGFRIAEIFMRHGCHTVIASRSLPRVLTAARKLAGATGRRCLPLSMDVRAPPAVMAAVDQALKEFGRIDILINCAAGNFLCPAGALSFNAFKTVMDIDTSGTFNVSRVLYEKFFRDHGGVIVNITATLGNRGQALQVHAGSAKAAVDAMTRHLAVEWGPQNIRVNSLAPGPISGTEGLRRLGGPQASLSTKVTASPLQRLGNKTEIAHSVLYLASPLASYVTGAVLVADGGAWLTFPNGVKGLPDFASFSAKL
UniProt Q96GE9: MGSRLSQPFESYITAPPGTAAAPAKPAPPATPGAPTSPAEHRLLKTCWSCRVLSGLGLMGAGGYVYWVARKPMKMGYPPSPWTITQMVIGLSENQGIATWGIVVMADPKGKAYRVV
UniProt O75911: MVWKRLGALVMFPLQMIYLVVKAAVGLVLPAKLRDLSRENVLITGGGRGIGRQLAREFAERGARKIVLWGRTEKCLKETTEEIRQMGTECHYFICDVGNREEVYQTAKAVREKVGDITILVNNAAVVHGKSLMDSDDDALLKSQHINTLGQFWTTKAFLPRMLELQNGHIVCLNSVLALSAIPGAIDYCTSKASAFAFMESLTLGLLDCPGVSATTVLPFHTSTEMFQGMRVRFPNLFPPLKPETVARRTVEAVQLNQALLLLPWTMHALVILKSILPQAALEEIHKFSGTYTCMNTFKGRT
UniProt Q8TCE6, whole entry, looked up: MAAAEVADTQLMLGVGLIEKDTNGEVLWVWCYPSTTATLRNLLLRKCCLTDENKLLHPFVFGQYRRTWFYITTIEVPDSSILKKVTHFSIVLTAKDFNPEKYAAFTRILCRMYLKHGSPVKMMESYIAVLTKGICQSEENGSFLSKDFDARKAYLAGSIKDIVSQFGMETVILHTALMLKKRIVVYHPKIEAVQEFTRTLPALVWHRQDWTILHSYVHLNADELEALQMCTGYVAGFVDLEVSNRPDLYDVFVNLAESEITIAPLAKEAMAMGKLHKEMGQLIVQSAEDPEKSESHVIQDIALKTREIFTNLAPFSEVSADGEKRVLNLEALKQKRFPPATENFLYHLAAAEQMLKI
UniProt P00374: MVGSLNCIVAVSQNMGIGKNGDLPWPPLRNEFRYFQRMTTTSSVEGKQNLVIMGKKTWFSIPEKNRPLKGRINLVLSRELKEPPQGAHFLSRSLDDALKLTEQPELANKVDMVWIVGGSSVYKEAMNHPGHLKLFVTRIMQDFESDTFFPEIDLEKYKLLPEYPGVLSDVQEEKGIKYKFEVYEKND

Tests used:
Experiment in all cases: log2 fold change, soluble protein after heating vs DMSO (PISA); higher = thermal stabilisation; K562 cells, 10 uM, 30 min; active = over 0.2 and 3.5 SD of the protein, either way, in both replicates (recomputed)
[1] = compound: CN1CCN(CCOc2cc(OC3CCOCC3)c3c(Nc4c(Cl)ccc5c4OCO5)ncnc3c2)CC1 [saracatinib]
How it was run: (§1)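 Thermal stability values are relative to control samples and come from duplicates. They are expressed as log2 fold changes. For measurement, K562 cells (2×10^6 cells/mL) received 10 μM compound for 30 min, and aliquots were heated for 3 min over 48°C-58°C, pooled, and extracted at 4°C in PBS with 0.5% NP-40. Soluble protein, the supernatant after 21,000xg for 90 min, was quantified by TMTpro 16plex LC-MS/MS with equalised channel sums.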

[2] = compound: CN1CCN(c2nc(C3=C(c4c[nH]c5ccccc45)C(=O)NC3=O)c3ccccc3n2)CC1 [sotrastaurin]
How it was run: as §1

[3] = compound: CN1CCc2c(c3ccccc3n2Cc2ccc(C(=O)NO)cc2)C1 [Tubastatin A]
How it was run: as §1

[4] = compound: CNC(=O)C1=CC=CC=C1NC2=NC(=NC=C2Cl)NC3=C(C=C(C=C3)N4CCOCC4)OC
How it was run: as §1

[5] = compound: CNC(=O)c1ccc(Nc2ncc(C(F)(F)F)c(NCc3nccnc3N(C)S(C)(=O)=O)n2)cc1 [defactinib]
How it was run: as §1

[6] = compound: CNCc1ccc(-c2[nH]c3cc(F)cc4c3c2CCNC4=O)cc1 [rucaparib]
How it was run: as §1

[7] = compound: CNc1nc(-c2ccc3c(N)n[nH]c3c2)cc(N2C[C@@H](C(=O)NC3CCCCC3)CC[C@H]2C)n1
How it was run: as §1

[8] = compound: COC(=O)N[C@@H](C)CNc1nccc(-c2cn(C(C)C)nc2-c2cc(Cl)cc(NS(C)(=O)=O)c2F)n1 [encorafenib]
How it was run: as §1

[9] = compound: COC(=O)[C@H](CCSC)NC(=O)C1=C(C=C(C=C1)NC[C@H](CS)N)C2=CC=CC=C2
How it was run: as §1

[10] = compound: COC1=CC=C(C=C1)CN2C=CC3=C2C=C(C=C3)C(=O)NO
How it was run: as §1

[11] = compound: CON(C)C(=O)N1N=C(c2cc(F)ccc2F)S[C@@]1(CCCN)c1ccccc1 [filanesib]
How it was run: as §1

[12] = compound: CO[C@H]1C[C@@H]2CC[C@@H](C)[C@@](O)(O2)C(=O)C(=O)N2CCCC[C@H]2C(=O)O[C@H]([C@H](C)C[C@@H]2CC[C@H](n3cnnn3)[C@H](OC)C2)CC(=O)[C@H](C)/C=C(\C)[C@@H](O)[C@@H](OC)C(=O)[C@H](C)C[C@H](C)/C=C/C=C/C=C/1C [zotarolimus]
How it was run: as §1

[13] = compound: COc1cc(Nc2ncc3c(n2)-c2ccc(Cl)cc2C(c2c(F)cccc2OC)=NC3)ccc1C(=O)O [alisertib]
How it was run: as §1

[14] = compound: COc1cc2nc(-c3cc(F)ccc3O)nc(N[C@@H]3CNC[C@H]3C(C)(C)O)c2cc1OC
How it was run: as §1

[15] = compound: COc1cc2ncnc(Nc3ccc(F)c(Cl)c3)c2cc1OCCCN1CCOCC1 [gefitinib]
How it was run: as §1

[16] = compound: COc1cccc2cc(-c3nc([C@H]4CC[C@H](C(=O)O)CC4)n4ncnc(N)c34)[nH]c12
How it was run: as §1

[17] = compound: CS(=O)(=O)CCNCc1ccc(-c2ccc3ncnc(Nc4ccc(OCc5cccc(F)c5)c(Cl)c4)c3c2)o1 [lapatinib]
How it was run: as §1

[18] = compound: CS(=O)(=O)N1CCN(Cc2cc3nc(-c4cccc5[nH]ncc45)nc(N4CCOCC4)c3s2)CC1 [pictilisib]
How it was run: as §1

[19] = compound: CN1CC[C@H](c2c(O)cc(O)c3c(=O)cc(-c4ccccc4Cl)oc23)[C@H](O)C1 [alvocidib]
How it was run: as §1

[20] = compound: COc1cc(C(=O)O)ccc1NC(=O)[C@@H]1N[C@@H](CC(C)(C)C)[C@](C#N)(c2ccc(Cl)cc2F)[C@H]1c1cccc(Cl)c1F [idasanutlin]
How it was run: as §1

Target | log2 fold change [1] | log2 fold change [2] | log2 fold change [3] | log2 fold change [4] | log2 fold change [5] | log2 fold change [6] | log2 fold change [7] | log2 fold change [8] | log2 fold change [9] | log2 fold change [10] | log2 fold change [11] | log2 fold change [12] | log2 fold change [13] | log2 fold change [14] | log2 fold change [15] | log2 fold change [16] | log2 fold change [17] | log2 fold change [18] | log2 fold change [19] | log2 fold change [20]
DNAH5 (UniProt Q8TE73) | inactive: 0.058 | inactive: 0.017 | inactive: 0.058 | inactive: -0.057 | inactive: 0.015 | inactive: -0.071 | inactive: -0.099 | inactive: -0.006 | inactive: -0.072 | inactive: -0.147 | inactive: -0.061 | inactive: 0.024 | inactive: 0.011 | inactive: -0.042 | inactive: 0.046 | inactive: 0.058 | active: -0.484 | inactive: -0.001 | – | –
DDX24 (UniProt Q9GZR7) | inactive: -0.003 | inactive: 0.055 | inactive: 0.392 | – | inactive: 0.082 | – | inactive: -0.03 | – | inactive: -0.051 | inactive: -0.31 | inactive: 0.276 | inactive: 0.042 | inactive: -0.101 | inactive: -0.029 | – | inactive: 0.088 | inactive: 0.101 | inactive: -0.043 | inactive: 0.264 | inactive: 0.21
DDOST (UniProt P39656) | inactive: -0.015 | inactive: -0.03 | inactive: 0.021 | inactive: 0.008 | inactive: 0.042 | inactive: -0.029 | inactive: -0.005 | inactive: 0.059 | inactive: -0.002 | inactive: -0.068 | inactive: -0.009 | inactive: 0.036 | inactive: -0.065 | inactive: 0.003 | inactive: -0.019 | inactive: 0.012 | inactive: 0.019 | inactive: -0.04 | – | inactive: 0.013
DGKA (UniProt P23743) | inactive: -0.124 | inactive: 0.168 | – | inactive: -0.047 | inactive: -0.49 | – | inactive: -0.079 | – | inactive: -0.172 | – | inactive: -0.277 | – | inactive: 0.472 | inactive: 0.1 | – | inactive: 0.226 | inactive: 0.119 | – | – | –
DECR2 (UniProt Q9NUI1) | inactive: -0.065 | inactive: 0.021 | inactive: -0.043 | inactive: -0.122 | inactive: -0.069 | inactive: 0.01 | inactive: 0.061 | inactive: -0.07 | inactive: -0.079 | inactive: 0.112 | inactive: -0.097 | – | inactive: -0.001 | inactive: 0.029 | inactive: 0.049 | inactive: 0.171 | inactive: 0.028 | inactive: -0.025 | – | inactive: 0.016
DNAH10 (UniProt Q8IVF4) | inactive: -0.067 | inactive: -0.06 | inactive: 0.191 | inactive: -0.157 | inactive: 0.004 | inactive: -0.044 | inactive: 0.062 | inactive: -0.06 | inactive: -0.013 | active: 0.574 | inactive: -0.187 | inactive: -0.046 | inactive: -0.042 | – | inactive: -0.04 | inactive: 0.007 | – | inactive: 0.052 | – | –
DHX40 (UniProt Q8IX18) | inactive: 0.069 | inactive: -0.025 | inactive: 0.053 | inactive: -0.043 | inactive: -0.163 | inactive: 0.087 | inactive: 0.013 | inactive: 0.068 | inactive: -0.039 | inactive: -0.025 | inactive: 0.022 | inactive: 0.008 | inactive: -0.146 | inactive: -0.019 | inactive: 0.31 | inactive: -0.037 | inactive: 0.039 | inactive: -0.014 | – | inactive: 0.025
DNAH11 (UniProt Q96DT5) | inactive: 0.301 | inactive: 0.317 | inactive: -0.083 | inactive: -0.043 | inactive: -0.11 | inactive: 0.162 | inactive: 0.061 | inactive: 0.152 | inactive: 0.049 | inactive: 0 | inactive: 0.047 | inactive: 0.04 | inactive: -0.025 | inactive: -0.137 | inactive: -0.002 | inactive: -0.203 | inactive: 0.216 | inactive: 0.552 | – | inactive: 0.03
DMAC1 (UniProt Q96GE9) | active: -0.509 | inactive: 0 | inactive: 0.031 | inactive: -0.077 | inactive: -0.048 | inactive: -0.124 | inactive: 0.005 | inactive: -0.105 | inactive: -0.019 | inactive: -0.121 | inactive: 0.04 | inactive: -0.04 | inactive: -0.174 | inactive: -0.111 | inactive: -0.074 | inactive: 0.145 | inactive: 0.053 | inactive: 0.038 | – | inactive: -0.339
DHRS3 (UniProt O75911) | inactive: -0.022 | inactive: -0.008 | inactive: -0.042 | inactive: 0.044 | inactive: 0.077 | inactive: -0.04 | inactive: -0.016 | inactive: 0.004 | inactive: 0.027 | inactive: 0.13 | inactive: -0.009 | inactive: -0.056 | inactive: 0.008 | inactive: 0.031 | inactive: 0.067 | inactive: 0.021 | inactive: 0.065 | inactive: 0.019 | – | inactive: -0.107
DMXL1 (UniProt Q9Y485) | inactive: 0.014 | inactive: 0.001 | inactive: -0.011 | inactive: -0.065 | inactive: -0.035 | inactive: 0.076 | inactive: -0.017 | inactive: 0.043 | inactive: -0.047 | inactive: 0.023 | inactive: 0.046 | inactive: -0.008 | inactive: -0.003 | inactive: 0.02 | inactive: -0.029 | inactive: -0.003 | inactive: -0.02 | inactive: -0.015 | – | inactive: -0.012
DHCR24 (UniProt Q15392) | inactive: 0.761 | inactive: 0.567 | inactive: 0.338 | inactive: -0.094 | inactive: -0.017 | inactive: 0.561 | inactive: 0.117 | inactive: 0.001 | inactive: 0.01 | inactive: 0.061 | inactive: -0.074 | inactive: 0.013 | inactive: -0.123 | inactive: 0.047 | active: 1.05 | inactive: -0.038 | inactive: 0.711 | inactive: 0.055 | – | inactive: -0.087
DENND1B (UniProt Q6P3S1) | inactive: 0.142 | inactive: 0.102 | – | – | inactive: -0.177 | inactive: 0.11 | inactive: 0.076 | inactive: -0.06 | inactive: -0.434 | inactive: -0.124 | inactive: 0.038 | inactive: -0.086 | inactive: 0.408 | inactive: 0.013 | inactive: 0.001 | inactive: -0.368 | inactive: -0.01 | – | inactive: -0.097 | inactive: 0.017
DENND10 (UniProt Q8TCE6) | inactive: 0.035 | inactive: 0.015 | inactive: 0.007 | inactive: -0.039 | inactive: -0.058 | inactive: -0.065 | inactive: -0.035 | inactive: 0.008 | inactive: -0.048 | – | inactive: -0.133 | inactive: -0.017 | inactive: -0.065 | inactive: 0.114 | inactive: 0.1 | inactive: -0.05 | inactive: -0.021 | – | – | inactive: 0.003
DDX46 (UniProt Q7L014) | inactive: 0 | inactive: -0.197 | inactive: 0.101 | inactive: 0.054 | inactive: -0.296 | inactive: -0.125 | inactive: 0.028 | inactive: 0.05 | inactive: -0.085 | inactive: 0.109 | inactive: -0.003 | inactive: 0.046 | inactive: 0.434 | inactive: 0.001 | inactive: 0.041 | inactive: -0.005 | inactive: 0.026 | inactive: 0.117 | – | inactive: 0.029
DHX16 (UniProt O60231) | inactive: 0.024 | inactive: -0.037 | inactive: -0.001 | inactive: -0.042 | inactive: -0.035 | inactive: -0.027 | inactive: 0.028 | inactive: 0.019 | inactive: -0.013 | inactive: 0.008 | inactive: 0.096 | inactive: 0.023 | inactive: -0.079 | inactive: 0.028 | inactive: 0.043 | inactive: 0.04 | inactive: 0.02 | inactive: -0.012 | – | inactive: -0.03
DHFR (UniProt P00374) | inactive: -0.193 | active: 1.66 | active: 1.77 | inactive: -0.115 | inactive: -0.109 | inactive: 0.39 | inactive: 0.036 | inactive: 0.109 | inactive: -0.059 | inactive: -0.057 | inactive: 0.089 | inactive: 0.065 | inactive: -0.08 | inactive: 0.109 | inactive: -0.021 | inactive: -0.05 | inactive: -0.061 | inactive: 0.039 | – | inactive: -0.051
DDX27 (UniProt Q96GQ7) | inactive: -0.104 | inactive: -0.088 | inactive: 0.09 | inactive: -0.035 | inactive: 0.651 | inactive: 0.255 | inactive: -0.017 | inactive: 0.124 | inactive: 0.057 | inactive: 0.091 | inactive: 0.278 | inactive: 0.071 | inactive: 0.415 | – | inactive: 0.044 | inactive: -0.138 | – | inactive: 0.061 | – | inactive: 0.246

Exported tab-delimited: part of the list above
Target	log2 fold change [1]	log2 fold change [2]	log2 fold change [3]	log2 fold change [4]	log2 fold change [5]	log2 fold change [6]	log2 fold change [7]	log2 fold change [8]	log2 fold change [9]	log2 fold change [10]	log2 fold change [11]	log2 fold change [12]	log2 fold change [13]	log2 fold change [14]	log2 fold change [15]	log2 fold change [16]	log2 fold change [17]	log2 fold change [18]	log2 fold change [19]	log2 fold change [20]
DHX40 (UniProt Q8IX18)	inactive: 0.069	inactive: -0.025	inactive: 0.053	inactive: -0.043	inactive: -0.163	inactive: 0.087	inactive: 0.013	inactive: 0.068	inactive: -0.039	inactive: -0.025	inactive: 0.022	inactive: 0.008	inactive: -0.146	inactive: -0.019	inactive: 0.31	inactive: -0.037	inactive: 0.039	inactive: -0.014	–	inactive: 0.025
DNAH11 (UniProt Q96DT5)	inactive: 0.301	inactive: 0.317	inactive: -0.083	inactive: -0.043	inactive: -0.11	inactive: 0.162	inactive: 0.061	inactive: 0.152	inactive: 0.049	inactive: 0	inactive: 0.047	inactive: 0.04	inactive: -0.025	inactive: -0.137	inactive: -0.002	inactive: -0.203	inactive: 0.216	inactive: 0.552	–	inactive: 0.03
